Measured values from PubChem BioAssay AID2685 (National Center for Advancing Translational Sciences (NCATS), 2010).
Some of the results follow. These are further read-outs of the screen, such as a control signal, another cell line or another target. No call is given for them. Compounds called inactive in the main read-out are mostly missing here. The note in brackets gives the kind of curve behind each potency; many fits are weak.

Test: qHTS Assay for Lipid Storage Modulators in Drosophila S3 Cells;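 for cell number change: cells counted by Cell Tracker Red CMTPX staining in the red channel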
Conditions: BODIPY lipid droplet fluorescence, 18-24 h; for cell number change: measured here: cell count max response, cells fed with added oleic acid
Method in brief: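 Drosophila S3 cells loaded with oleic acid (400 uM, as added) and compounds at several concentrations; lipid droplets imaged by 488-nm laser-scanning cytometry, 500–530 nm intensity and object ratio to cell channel. Percent activity normalized to 20 uM Triacsin C.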

[1] = measured here: lipid fluorescence (Fed channel) AC50, cells fed with added oleic acid
[2] = measured here: cell number channel AC50, cells fed with added oleic acid

| Compound | cell number change | AC50 [1] | AC50 [2] |
| --- | --- | --- | --- |
| COc1ccc(Cl)cc1NC(=O)COC(=O)c1cc(NS(=O)(=O)c2cccs2)ccc1O | 8.37% | 14.6 µM [rising, single point] |  |
| COc1ccc(N2C(=O)C3CC(C)=C(C)CC3C2=O)c(OC)c1 (stereo not given) | 12.3% | 2.31 µM [falling, partial curve, poor fit] |  |
| COc1ccc(N2Cc3ccccc3C2=O)cc1 | 7.33% | 0.00461 µM [rising, full curve, poor fit] |  |
| COC(=O)CSc1nc2cc(OC)ccc2cc1C#N | 0.559% | 6.51 µM [rising, single point] |  |
| CC(Oc1ccc(Cl)cc1Cl)c1nc(-c2ccccn2)no1 (stereo not given) | -7.9% | 1.16 µM [rising, single point] |  |
| COc1ccc(/C=N/NC(=O)c2cccc([N+](=O)[O-])c2)cc1OS(=O)(=O)c1ccc(C)cc1 | -31.2% | 13 µM [falling, partial curve] | 23.1 µM [falling, single point] |
| CNC(=S)N/N=C/c1ccc(OCc2ccccc2)c(Br)c1 | -41.1% | 8.2 µM [falling, partial curve] | 29.1 µM [falling, single point] |
| COC(=O)c1c(O)ccc(Oc2ccccc2)c1C(=O)OC | -34.1% | 0.411 µM [falling, single point] | 0.461 µM [falling, full curve, poor fit] |
| COc1ccc(OC)c(S(=O)(=O)N2CCN(c3ncccn3)CC2)c1 | -16.3% | 29.1 µM [falling, single point] |  |
| Cn1c(=O)c2c(n3cnnc13)-c1ccccc1CC21CCCC1 | -24.3% | 29.1 µM [falling, single point] |  |
| Cc1cccc(NCc2cccc3ccccc23)n1 | -21.7% | 0.651 µM [rising, single point] |  |
| CCCCSc1nc2c(cnn2-c2ccc(Cl)cc2)c(=O)[nH]1 |  | 0.651 µM [rising, full curve, poor fit] |  |
| COc1ccc(-c2cc(=O)c3c(O)cc(O[C@@H]4O[C@H](CO[C@@H]5O[C@@H](C)[C@H](O)[C@@H](O)[C@H]5O)[C@@H](O)[C@H](O)[C@H]4O)cc3o2)cc1O | -4.09% | 29.1 µM [rising, single point] |  |
| COc1cc(/C=C/C(=O)C2C(=O)C=C(C)OC2=O)cc(OC)c1O (stereo not given) | -20.9% | 11.6 µM [falling, partial curve, poor fit] |  |
| COc1ccc2c(c1)-c1c(ssc1=S)C(C)(C)N2 | -66% | 29.1 µM [falling, single point] | 29.1 µM [falling, single point] |
| Cc1cccc(N(CC(=O)Nc2c(C)n(C)n(-c3ccccc3)c2=O)S(C)(=O)=O)c1 | -111% |  | 29.1 µM [falling, single point] |
| C=CCNC(=O)N1CCc2[nH]c3ccc(F)cc3c2C1 | 13% |  |  |
| COc1ccc(Cc2nnc(SCc3ccc([N+](=O)[O-])cc3)o2)cc1 | 15.1% |  | 0.00461 µM [falling, full curve, poor fit] |

Copied from the list.
`C=CCNC(=O)N1CCc2[nH]c3ccc(F)cc3c2C1` | cell number change: 13%
`Cc1cccc(N(CC(=O)Nc2c(C)n(C)n(-c3ccccc3)c2=O)S(C)(=O)=O)c1` | cell number change: -111%
`COc1ccc(-c2cc(=O)c3c(O)cc(O[C@@H]4O[C@H](CO[C@@H]5O[C@@H](C)[C@H](O)[C@@H](O)[C@H]5O)[C@@H](O)[C@H](O)[C@H]4O)cc3o2)cc1O` | AC50 [1]: 29.1 µM [rising, single point]

(next part)

| Compound | cell number change | AC50 [1] | AC50 [2] |
| --- | --- | --- | --- |
| Cc1ccc(-c2nn3c(C)nnc3s2)cc1NC(=O)C(C)C | 34.1% | 23.1 µM [rising, single point] | 23.1 µM [rising, single point] |
| NC(=O)CC(NC(=O)c1ccccc1)c1ccc(N2CCN(c3ccc(F)cc3)CC2)c([N+](=O)[O-])c1 (stereo not given) | -43.4% |  | 32.6 µM [falling, single point] |
| CCN1C(=O)/C(=C\c2ccncc2)SC1=Nc1ccc(C)c(C)c1 | 7.83% | 2.06 µM [falling, partial curve] |  |
| Cc1ccc(CNC(=O)CCc2nc3ccccc3c(=O)[nH]2)cc1 | 20.7% | 8.2 µM [rising, single point] |  |
| COc1ccc(-c2noc(-c3cc(C)cc(C)c3)n2)cc1OC | -16.7% | 9.2 µM [rising, partial curve, poor fit] | 4.11 µM [rising, single point] |
| COc1cc(OC)cc(C(=O)NCc2nc(-c3ccccc3)no2)c1 | -45.5% |  | 32.6 µM [falling, partial curve, poor fit] |
| CCOC(=O)C(Cc1ccccc1)NC(C)=O (stereo not given) | -55.6% | 2.59 µM [falling, full curve] | 5.8 µM [falling, full curve] |
| COc1ccc(-c2nnc(SCC(=O)NC3CCCCC3)o2)cc1OC | -46.5% |  | 16.4 µM [falling, partial curve, poor fit] |
| Cc1ccc2sc(N(CCCN(C)C)C(=O)c3ccc(Br)s3)nc2c1C |  | 2.06 µM [falling, partial curve] |  |
| Cc1ccc(-c2c[n+](CC(=O)c3ccc(Br)cc3)c3n2CCCCC3)cc1 | -66% | 16.4 µM [falling, single point] | 18.4 µM [falling, single point] |
| CS(=O)(=O)Nc1ccc(C(=O)Nc2ccccc2Cl)cc1 | 112% |  | 29.1 µM [rising, single point] |
| COc1ccc(C(CNC(=O)c2oc3cc(C)c(C)cc3c2C)N2CCCCC2)cc1 (stereo not given) | 11% |  |  |
| Cc1cc(NS(=O)(=O)c2ccc(NC(=O)/C=C/c3ccccc3)cc2)no1 | 7.66% | 29.1 µM [rising, single point] |  |
| N#Cc1c2c(c(-c3ccccc3Cl)[nH]c1=S)CCCC2 | -18.2% |  | 0.092 µM [falling, full curve, poor fit] |
| C/C(=N\NC(=O)c1ccc(CSc2nncn2C)cc1)c1ccc(C#N)cc1 | 15.9% | 1.46 µM [rising, partial curve, poor fit] |  |
| COc1ccc(OC)c(C(=O)c2coc3ccc(OCC(=O)O)cc23)c1 | -34.6% | 3.66 µM [falling, full curve] | 3.26 µM [falling, full curve] |
| O=C(NCc1ccco1)c1csc2c1CCCC2 | -20% | 29.1 µM [falling, single point] |  |
